Laboratory results as given in paper PMC3276557.
These are yes or no findings as the source states them, for the method shown. For some of these results: Binding seen in cells or lysates may run through a third protein. Some results given as binding are weak or reduced against the parent protein; the word gives no strength.

By UniProt entry, the sequences of proteins in these tests, tags left out. Where a name states a change or a piece, a line headed by the entry shows the natural chain unless it says otherwise. Residues count along the entry.
UniProt P03101: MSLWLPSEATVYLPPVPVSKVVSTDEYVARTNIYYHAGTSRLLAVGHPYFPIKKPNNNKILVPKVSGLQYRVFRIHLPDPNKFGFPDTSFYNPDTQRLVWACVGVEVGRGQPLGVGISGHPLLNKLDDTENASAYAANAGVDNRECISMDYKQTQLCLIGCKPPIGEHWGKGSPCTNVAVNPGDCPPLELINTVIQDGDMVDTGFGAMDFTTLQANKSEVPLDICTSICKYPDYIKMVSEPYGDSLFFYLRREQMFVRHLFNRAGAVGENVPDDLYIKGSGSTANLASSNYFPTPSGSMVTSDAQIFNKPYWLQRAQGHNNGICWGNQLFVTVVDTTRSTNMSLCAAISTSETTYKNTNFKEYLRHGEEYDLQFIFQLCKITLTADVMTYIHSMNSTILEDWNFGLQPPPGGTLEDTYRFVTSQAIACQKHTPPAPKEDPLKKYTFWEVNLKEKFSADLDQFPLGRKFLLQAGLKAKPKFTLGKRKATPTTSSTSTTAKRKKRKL
UniProt Q99075, residues 63-148: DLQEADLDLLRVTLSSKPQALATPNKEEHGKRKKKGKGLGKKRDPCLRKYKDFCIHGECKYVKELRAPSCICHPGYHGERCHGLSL

B1: syndecan-1 on HaCaT human keratinocytes (receptor, UniProt P18827 23-310)
chain: QIVATNLPPEDQDGSGDDSDNFSGSGAGALQDITLSQQTPSTWKDTQLLTAIPTSPEPTGLEATAASTSTLPAGEGPKEGEAVVLPEVEPGLTAREQEATPRPRETTQLPTTHLASTTTATTAQEPATSHPHRDMQPGHHETSTPAGPSQADLHTPHTEDGGPSATERAAEDGASSQLPAAEGSGEQDFTFETSGENTAVVAVEPDRRNQSPVDQGATGASQGLLDRKEVLGGVIAGGLVGLIFAVCLVGFMLYRMKKKDEGSYSLEEPKQANGGAYQKPTKQEEFYA
modifications: heparan sulfate chains (HSPG)
B2: amphiregulin (AREG) (ligand, UniProt P15514 101-187)
chain: SVRVEQVVKPPQNKTESENTSDKPKRKKKGGKNGKNRRNRKKKNPCNAEFQNFCIHGECKYIEHLEAVTCKCQQEYFGERCGEKSMK
B3: syndecan-1 ectodomain released into complete medium (CM) of HaCaT cells (domain or fragment, UniProt P18827 23-254)
chain: QIVATNLPPEDQDGSGDDSDNFSGSGAGALQDITLSQQTPSTWKDTQLLTAIPTSPEPTGLEATAASTSTLPAGEGPKEGEAVVLPEVEPGLTAREQEATPRPRETTQLPTTHLASTTTATTAQEPATSHPHRDMQPGHHETSTPAGPSQADLHTPHTEDGGPSATERAAEDGASSQLPAAEGSGEQDFTFETSGENTAVVAVEPDRRNQSPVDQGATGASQGLLDRKEVLG
modifications: heparan sulfate chains (HSPG)

Key:
[1] = biological target: HPV16 pseudovirions (PsV), capsids of L1 and L2 encapsidating a luciferase reporter plasmid (human papillomavirus type 16) (UniProt P03101); assay: co-IP; HPV16 bound to HaCaT cells at 4°C for 1 h, washed, shifted to 37°C for 6 h or 24 h; IP of HPV16 from the complete medium with affinity purified polyclonal anti-HPV16 VLP antibody covalently attached to magnetic beads; non-reducing SDS-PAGE, immunoblot; only the target purified
[2] = biological target: HPV16 pseudovirions (PsV), capsids of L1 and L2 encapsidating a luciferase reporter plasmid (human papillomavirus type 16) (UniProt P03101); assay: SEC; Sepharose 4B chromatography of concentrated (Amicon 30K) complete medium of HaCaT cells exposed to HPV16 PsV or mock, 24 h; void volume (HMW, >10^7 Da) fraction, non-reducing SDS-PAGE and immunoblot; only the target purified
[3] = biological target: HPV16 pseudovirions (PsV), capsids of L1 and L2 encapsidating a luciferase reporter plasmid (human papillomavirus type 16) (UniProt P03101); assay: co-IP; HPV16 PsV bound to HaCaT cells (500 vge/cell, 4°C, 1 h); cells lysed in cold Triton lysis buffer (1% TX100, 50 mM Tris-HCl pH 7.5, 150 mM NaCl, 1 mM EDTA); IP of HPV16 with anti-HPV16 antibody on protein A magnetic Dynabeads, 1 h, 4°C; immunoblot; for syndecan-1 with or without DTSSP cross-linking before lysis; only the target purified
[4] = biological target: HPV16 pseudovirions (PsV), capsids of L1 and L2 encapsidating a luciferase reporter plasmid (human papillomavirus type 16) (UniProt P03101); assay: co-IP; co-culture transwell: anti-HPV16 L1 mouse mAb on Dynabeads-Protein A in the lower chamber captures HPV16 released from PsV-exposed HaCaT donor cells, 2 or 20 h, complete medium; non-reducing SDS-PAGE, immunoblot with rabbit antiserum to syndecan-1; only the target purified

Row | Molecule | binding [1] | binding [2] | binding [3] | binding [4]
1 | heparin binding epidermal growth factor (HB-EGF) (from UniProt Q99075 63-148) (ligand) | binds | binds | – | –
2 | B1 | – | – | binds | –
3 | B2 | – | binds | – | –
4 | B3 | binds | binds | – | binds
